No constants are given. Whether binding was seen depends on the method and setting. Binding seen in cells or lysates may run through a third protein. Some results given as binding are weak or reduced against the parent protein; the word gives no strength.
Target: sirtuin-1 (SIRT1) (human (endogenous in HCT116 and DLD1)) (UniProt Q96EB6)
Assay: co-IP; endogenous proteins; HCT116 and DLD1 cell lysates immunoprecipitated with anti-SIRT1 or IgG control (100 µL lysate, 2 µL primary antibody, 4 ℃ 3 h; Protein A/G Magnetic Beads 4 ℃ overnight; washed thrice with lysis buffer), immunoblotted with anti-SIRT1 or anti-β-catenin

Chains of the proteins cited; added tags and fusions are not shown.
UniProt Q96EB6: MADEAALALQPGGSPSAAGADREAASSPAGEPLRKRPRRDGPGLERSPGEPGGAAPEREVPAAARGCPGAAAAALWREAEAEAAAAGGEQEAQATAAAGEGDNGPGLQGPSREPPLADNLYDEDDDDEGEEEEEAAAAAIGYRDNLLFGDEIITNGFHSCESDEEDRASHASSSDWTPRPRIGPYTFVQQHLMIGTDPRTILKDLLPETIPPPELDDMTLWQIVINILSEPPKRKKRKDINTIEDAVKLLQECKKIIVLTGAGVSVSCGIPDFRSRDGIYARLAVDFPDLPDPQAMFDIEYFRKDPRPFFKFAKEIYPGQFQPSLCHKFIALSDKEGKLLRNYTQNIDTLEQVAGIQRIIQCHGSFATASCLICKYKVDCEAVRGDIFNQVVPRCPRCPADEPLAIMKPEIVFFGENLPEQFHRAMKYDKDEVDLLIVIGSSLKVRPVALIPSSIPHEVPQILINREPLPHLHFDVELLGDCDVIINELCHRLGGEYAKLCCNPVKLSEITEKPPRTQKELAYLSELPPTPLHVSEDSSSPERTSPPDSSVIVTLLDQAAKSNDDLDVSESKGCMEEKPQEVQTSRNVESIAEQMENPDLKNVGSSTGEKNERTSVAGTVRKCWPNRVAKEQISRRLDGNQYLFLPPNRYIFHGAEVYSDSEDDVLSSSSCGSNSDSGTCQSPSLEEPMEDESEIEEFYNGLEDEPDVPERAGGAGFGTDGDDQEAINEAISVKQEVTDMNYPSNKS
UniProt P35222: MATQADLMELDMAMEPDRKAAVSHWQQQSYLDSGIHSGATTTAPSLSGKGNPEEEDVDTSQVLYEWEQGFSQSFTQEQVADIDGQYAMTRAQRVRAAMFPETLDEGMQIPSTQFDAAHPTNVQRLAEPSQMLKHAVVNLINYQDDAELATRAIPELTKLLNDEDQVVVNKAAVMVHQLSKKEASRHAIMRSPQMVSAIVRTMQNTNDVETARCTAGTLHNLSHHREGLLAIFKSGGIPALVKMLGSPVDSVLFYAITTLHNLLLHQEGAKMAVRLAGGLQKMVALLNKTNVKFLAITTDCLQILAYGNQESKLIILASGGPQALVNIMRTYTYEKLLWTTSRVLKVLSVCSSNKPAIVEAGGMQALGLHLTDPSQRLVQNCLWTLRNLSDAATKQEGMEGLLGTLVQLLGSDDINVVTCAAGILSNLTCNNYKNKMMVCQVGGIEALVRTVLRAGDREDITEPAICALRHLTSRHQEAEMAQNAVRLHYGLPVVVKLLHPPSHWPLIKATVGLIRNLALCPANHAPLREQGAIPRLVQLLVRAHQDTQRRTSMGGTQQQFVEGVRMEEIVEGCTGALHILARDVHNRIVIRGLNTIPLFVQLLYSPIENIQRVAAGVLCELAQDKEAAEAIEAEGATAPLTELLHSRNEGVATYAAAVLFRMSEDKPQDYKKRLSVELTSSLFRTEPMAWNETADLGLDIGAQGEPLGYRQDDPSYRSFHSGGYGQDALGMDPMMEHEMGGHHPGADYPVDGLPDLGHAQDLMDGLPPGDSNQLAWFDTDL

β-catenin (from UniProt P35222 1-781) was tested, and the binding was “binds”.
